# Data: PubChem BioAssay AID445 (National Center for Advancing Translational Sciences (NCATS), 2006)
# The list shows a part of the results. The main result of the screen is listed elsewhere. These columns were measured beside it and carry no call. Most of these compounds were active or inconclusive in the main read-out, so they are no random draw. The note in brackets gives the kind of curve behind each potency; many fits are weak.
# Test: IkB Signaling
# Settings: ABC-DLBCL IkBa-CBG/CBR dual luciferase ratio (green luciferase fused to IkBa over red control in OCI-Ly3 lymphoma cells), 4 h
# How it was run: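 Curves were fitted separately to fusion (green), unfused (red) and ratio luminescence, then classed by r2, magnitude and activity. Cells: OCI-Ly3, 4 h compound plus doxycycline at 37C; 10 uM MG-132 defined full response.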
# [1] = measured here: control luc red channel unless noted
compound,measurement,setting,value
CCOc1ccc2c(c1)c(=O)c(C(=O)c1ccccc1)cn2Cc1ccccc1,AC50,[1],"25.1 µM [falling, single point]"
Cc1ccc(C(=O)Nc2c(C(=O)NC(C)(C)C)oc3ccccc23)cc1,AC50,[1],"12.6 µM [falling, partial curve]"
CCOC(=O)c1ccc(NC(=O)CSc2c(C(C)C)cnc3c2c(=O)n(C)c(=O)n3C)cc1,AC50,[1],"39.8 µM [falling, single point]"
O=C(/C=C\Nc1cccc(F)c1)c1ccc2c(c1)OCO2,AC50,[1],"7.94 µM [falling, partial curve]"
CCOc1nc2c(c(=O)n(C)c(=O)n2C)n1Cc1ccccc1Cl,AC50,[1],"20 µM [falling, single point]"
CC(C)c1cc(C(=O)Nc2ccc3c(c2)OCO3)no1,AC50,[1],"2 µM [falling, full curve]"
Cc1cccc(N2C(=O)N(Cc3cc(=O)n4ccccc4n3)c3ccccc3S2(=O)=O)c1,AC50,[1],"15.8 µM [falling, single point]"
CC(=O)Nc1cc(C(=O)NCc2ccccc2Cl)ccc1Sc1ccc(F)cc1,AC50,[1],"31.6 µM [falling, single point]"
Cc1cc(C)cc(NC(=O)c2cc(S(=O)(=O)NCCC3=CCCCC3)ccc2F)c1,AC50,[1],"20 µM [falling, single point]"
CCOc1ccc2nc(N3CCN(C(=O)c4ccc5c(c4)CCCC5)CC3)sc2c1,AC50,[1],"0.00794 µM [falling, full curve, poor fit]"
Cc1cc(OCC(=O)Nc2ccc(C(=O)OC3CCCCC3)cc2)cc(C)c1Cl,AC50,[1],"3.98 µM [falling, full curve, poor fit]"
CCOC(=O)c1ccc(Oc2nc(NC(C)(C)C)nc(N(C)C)n2)cc1,AC50,[1],"12.6 µM [falling, partial curve]"
CCN1CCN(c2csc3ccc(C)cc3c2=O)CC1,AC50,[1],"0.251 µM [rising, full curve]"
Cc1ccccc1-c1noc(-c2cc3ccccc3oc2=O)n1,AC50,[1],"7.94 µM [falling, partial curve]"
Cc1ccc(-n2ncc(C(=O)Nc3ccc4c(c3)OCCO4)c2C2CCN(C(=O)OC(C)(C)C)CC2)cc1,AC50,[1],"15.8 µM [falling, partial curve]"
CCOc1cccc(CN2CCN(c3cccc(C(F)(F)F)c3)CC2)c1O,AC50,[1],"20 µM [falling, partial curve]"
COc1ccc(OCC(=O)N2CCN(c3nnc(-c4ccccc4)c4ccccc34)CC2)cc1,AC50,[1],"7.94 µM [falling, partial curve]"
CC1CCN(S(=O)(=O)c2ccc3c(c2)oc(=O)n3CC(=O)NC(C)c2ccccc2)CC1 (centres undefined),AC50,[1],"12.6 µM [falling, partial curve]"
CNc1c(NC(=O)c2cc(OC)cc(OC)c2)c(=O)oc2ccccc12,AC50,[1],"39.8 µM [falling, single point]"
CSc1nc(Nc2cccc(C)c2)c(C#N)c(-c2ccccc2)n1,AC50,[1],"39.8 µM [rising, single point]"
CCOC(=O)c1cnc2ccc(OC)cc2c1NCCc1ccc(OC)c(OC)c1,AC50,[1],"25.1 µM [falling, partial curve]"
Cn1c(SCC(=O)N2CCCc3ccccc32)ncc(C(=O)Nc2ccc(F)cc2)c1=O,AC50,[1],"20 µM [falling, single point]"
CCc1ccc(C(=O)CSC2=C(C#N)C(c3ccco3)C(C(C)=O)=C(C)N2)cc1 (centres undefined),AC50,[1],"12.6 µM [falling, partial curve]"
CCCCNC(=O)c1nn(-c2ccc(C)cc2)c(=O)c2c1c1ccccc1n2C,AC50,[1],"39.8 µM [rising, single point]"
Cc1cccc(CNC(=O)c2cccc(NC(=O)N3CCSc4ncccc43)c2)c1,AC50,[1],"25.1 µM [falling, partial curve]"
Cc1ccc2c(c1)C(c1ccccc1)N(C(=O)c1ccccc1F)CC(=O)N2 (centres undefined),AC50,[1],"1.26 µM [falling, partial curve]"
CCOC(=O)c1cccc(NC(=O)c2cc3cc4ccc(C)cc4nc3o2)c1,AC50,[1],"2.51 µM [rising, full curve, poor fit]"
CCCn1c(SCc2nc(-c3cc(OC)ccc3OC)no2)nnc1-c1ccc(Cl)cc1,AC50,[1],"31.6 µM [falling, single point]"
COc1cc(C2C(=O)N(C3CCCCCC3)CC(=O)N2CCC2=CCCCC2)ccc1OC(C)C (centres undefined),AC50,[1],"6.31 µM [falling, partial curve]"
O=C(Nc1ccccc1Cl)c1cc(S(=O)(=O)N2CCC3(CC2)OCCO3)ccc1F,AC50,[1],"20 µM [falling, single point]"
COc1ccccc1-c1noc(-c2ccccc2)n1,AC50,[1],"12.6 µM [falling, partial curve]"
CCn1cc2nc(SCc3ccccc3Cl)n(CCc3ccccc3)c(=O)c2n1,AC50,[1],"31.6 µM [falling, single point]"
COc1ccccc1NC1SC(=O)N(c2ccccc2)C1=O (centres undefined),AC50,[1],"0.0398 µM [falling, full curve]"
CCC12CN3CC(C)(CN(C1)C3c1ccccc1C)C2=O (centres undefined),AC50,[1],"39.8 µM [falling, single point]"
Cc1ccccc1-c1nc2cc(NC(=O)c3cccc(OCCC(C)C)c3)ccc2o1,AC50,[1],"0.631 µM [falling, full curve]"
COc1cc(NC(=O)c2ccc(-c3nc(COc4ccccc4)c(C)o3)cc2)cc(OC)c1,AC50,[1],"2.51 µM [falling, full curve]"
O=C1Nc2ccccc2C(O)(C(=O)NCc2ccco2)N1c1ccc(Cl)c(Cl)c1 (centres undefined),AC50,[1],"0.316 µM [falling, full curve]"
O=C(CSc1nnc(CNC(=O)c2ccccc2F)n1-c1ccccc1)Nc1ccccc1F,AC50,[1],"6.31 µM [falling, partial curve]"
CC(=O)C1=C(c2ccc(Cl)c(Cl)c2)N(C(C)=O)n2c(nnc2C2CCCCC2)S1,AC50,[1],"15.8 µM [falling, partial curve]"
O=C(CCc1nnc2n(Cc3ccccc3Cl)c(=O)c3ccccc3n12)Nc1ccc(F)cc1,AC50,[1],"31.6 µM [falling, partial curve]"
Cc1ccc(S(=O)(=O)c2cnc(SC(C)C(=O)Nc3ccccc3)[nH]c2=O)cc1 (centres undefined),AC50,[1],"15.8 µM [falling, partial curve]"
CCN1C(=O)c2cccc3c(S(=O)(=O)NCc4ccco4)ccc1c23,AC50,[1],"31.6 µM [rising, partial curve] [measured here: IkB-luc green channel]"
Cc1noc(C)c1CSc1nc2ccccc2c(=O)n1-c1ccccc1,AC50,[1],"25.1 µM [falling, single point]"
COc1cccc(C(c2c(O)cc(C)n(Cc3ccco3)c2=O)N2CCN(c3ccccc3)CC2)c1 (centres undefined),AC50,[1],"6.31 µM [falling, partial curve, poor fit]"
O=C(CSc1nccn1Cc1ccc(Cl)cc1)Nc1ccc2c(c1)OCCO2,AC50,[1],"39.8 µM [falling, single point]"
Cc1ccc(SC/C(O)=C(\C#N)c2nc3ccccc3s2)cc1,AC50,[1],"2 µM [falling, full curve]"
COC(=O)c1cc2sccc2n1Cc1nc(-c2ccc(Cl)cc2)oc1C,AC50,[1],"31.6 µM [falling, single point]"
CCOCCCn1c(SCC(=O)Nc2ccc(C)cc2)nc2ccccc2c1=O,AC50,[1],"31.6 µM [falling, single point]"
COc1ccc(CNC(=O)C(C)n2ccc3cc(S(=O)(=O)N4CCCC4)ccc32)cc1OC (centres undefined),AC50,[1],"7.94 µM [falling, partial curve]"
COc1ccccc1NC(=O)C1=C(C)Nc2nc(SCc3ccccc3C)nn2C1CC(C)C (centres undefined),AC50,[1],"2.51 µM [falling, full curve]"
COc1ccc(C(=O)c2oc3ccc(OC)cc3c2N)cc1,AC50,[1],"0.794 µM [rising, partial curve]"
O=C(COc1ccccc1)Nc1nnc(S(=O)(=O)N2CCCC2)s1,AC50,[1],"15.8 µM [falling, single point]"
O=C(OCC1CCCO1)c1ccc2c(c1)N(Cc1ccccc1Cl)C(=O)c1ccccc1S2(=O)=O (centres undefined),AC50,measured here: IkB-luc green channel,"0.316 µM [rising, partial curve]"
same,AC50,measured here: control luc red channel,"7.94 µM [rising, partial curve]"
O=C(Nc1ccc2oc(-c3ccc4ccccc4c3)nc2c1)c1ccccc1F,AC50,[1],"0.794 µM [rising, full curve]"
CCOc1ccc(-n2c(=O)c3c4c(sc3n(CC(=O)Nc3cccc(C(F)(F)F)c3)c2=O)CCCCC4)cc1,AC50,[1],"12.6 µM [falling, partial curve]"
COc1ccccc1NC(=O)C(Cc1ccccc1)NS(=O)(=O)c1ccc2c(c1)c(=O)n(C)c(=O)n2C (centres undefined),AC50,[1],"15.8 µM [falling, partial curve]"
O=C(NCc1ccc(F)cc1)c1c(O)nc2ccccn2c1=O,AC50,[1],"25.1 µM [falling, single point]"
CCCCOc1cccc(NC(=O)CSc2nnc(C)s2)c1,AC50,[1],"31.6 µM [falling, single point]"
CN(Cc1ccccc1)c1ncnc2onc(-c3ccc(F)cc3)c12,AC50,[1],"15.8 µM [falling, partial curve]"
COc1ccc(NC(=O)COc2ccc(S(=O)(=O)NC3CCCCC3)cc2)cc1OC,AC50,[1],"15.8 µM [falling, partial curve]"
CC(NC(=O)CCNS(=O)(=O)c1cccc2nsnc12)c1ccccc1 (centres undefined),AC50,[1],"31.6 µM [falling, partial curve]"
Cc1ccc2c(=O)cc(CSCC(=O)Nc3nnc(C)s3)[nH]c2c1,AC50,[1],"39.8 µM [falling, single point]"
O=C(Nc1cccc(Cl)c1)c1cnc[nH]1,AC50,[1],"12.6 µM [falling, partial curve]"

# Reformatted: entries from further up
compound | measurement | setting | value
Cc1ccc(C(=O)Nc2c(C(=O)NC(C)(C)C)oc3ccccc23)cc1 | AC50 | [1] | 12.6 µM [falling, partial curve]
CCOC(=O)c1ccc(NC(=O)CSc2c(C(C)C)cnc3c2c(=O)n(C)c(=O)n3C)cc1 | AC50 | [1] | 39.8 µM [falling, single point]
O=C(/C=C\Nc1cccc(F)c1)c1ccc2c(c1)OCO2 | AC50 | [1] | 7.94 µM [falling, partial curve]
Cc1cccc(N2C(=O)N(Cc3cc(=O)n4ccccc4n3)c3ccccc3S2(=O)=O)c1 | AC50 | [1] | 15.8 µM [falling, single point]
CCOc1ccc2nc(N3CCN(C(=O)c4ccc5c(c4)CCCC5)CC3)sc2c1 | AC50 | [1] | 0.00794 µM [falling, full curve, poor fit]
CCOC(=O)c1ccc(Oc2nc(NC(C)(C)C)nc(N(C)C)n2)cc1 | AC50 | [1] | 12.6 µM [falling, partial curve]
CCOc1cccc(CN2CCN(c3cccc(C(F)(F)F)c3)CC2)c1O | AC50 | [1] | 20 µM [falling, partial curve]
COc1ccc(OCC(=O)N2CCN(c3nnc(-c4ccccc4)c4ccccc34)CC2)cc1 | AC50 | [1] | 7.94 µM [falling, partial curve]
CCc1ccc(C(=O)CSC2=C(C#N)C(c3ccco3)C(C(C)=O)=C(C)N2)cc1 (centres undefined) | AC50 | [1] | 12.6 µM [falling, partial curve]
COc1cc(C2C(=O)N(C3CCCCCC3)CC(=O)N2CCC2=CCCCC2)ccc1OC(C)C (centres undefined) | AC50 | [1] | 6.31 µM [falling, partial curve]
COc1ccccc1-c1noc(-c2ccccc2)n1 | AC50 | [1] | 12.6 µM [falling, partial curve]
CC(=O)C1=C(c2ccc(Cl)c(Cl)c2)N(C(C)=O)n2c(nnc2C2CCCCC2)S1 | AC50 | [1] | 15.8 µM [falling, partial curve]
O=C(CCc1nnc2n(Cc3ccccc3Cl)c(=O)c3ccccc3n12)Nc1ccc(F)cc1 | AC50 | [1] | 31.6 µM [falling, partial curve]
Cc1ccc(S(=O)(=O)c2cnc(SC(C)C(=O)Nc3ccccc3)[nH]c2=O)cc1 (centres undefined) | AC50 | [1] | 15.8 µM [falling, partial curve]
CCN1C(=O)c2cccc3c(S(=O)(=O)NCc4ccco4)ccc1c23 | AC50 | [1] | 31.6 µM [rising, partial curve] [measured here: IkB-luc green channel]
Cc1noc(C)c1CSc1nc2ccccc2c(=O)n1-c1ccccc1 | AC50 | [1] | 25.1 µM [falling, single point]
COC(=O)c1cc2sccc2n1Cc1nc(-c2ccc(Cl)cc2)oc1C | AC50 | [1] | 31.6 µM [falling, single point]
O=C(COc1ccccc1)Nc1nnc(S(=O)(=O)N2CCCC2)s1 | AC50 | [1] | 15.8 µM [falling, single point]
O=C(OCC1CCCO1)c1ccc2c(c1)N(Cc1ccccc1Cl)C(=O)c1ccccc1S2(=O)=O (centres undefined) | AC50 | measured here: control luc red channel | 7.94 µM [rising, partial curve]
CC(NC(=O)CCNS(=O)(=O)c1cccc2nsnc12)c1ccccc1 (centres undefined) | AC50 | [1] | 31.6 µM [falling, partial curve]
